Measurements as given in the supplement of paper PMC12819154, “High-throughput peptide-centric local stability assay extends protein–ligand identification to membrane proteins, tissues and bacteria” (Nature Structural & Molecular Biology, 2025).
Some of the results follow. Small differences around the control level are noise.

Chains of the proteins cited; added tags and fusions are not shown. Lines headed by an entry give the natural chain unless they say otherwise; changes in a name come on top.
UniProt Q9JMH9: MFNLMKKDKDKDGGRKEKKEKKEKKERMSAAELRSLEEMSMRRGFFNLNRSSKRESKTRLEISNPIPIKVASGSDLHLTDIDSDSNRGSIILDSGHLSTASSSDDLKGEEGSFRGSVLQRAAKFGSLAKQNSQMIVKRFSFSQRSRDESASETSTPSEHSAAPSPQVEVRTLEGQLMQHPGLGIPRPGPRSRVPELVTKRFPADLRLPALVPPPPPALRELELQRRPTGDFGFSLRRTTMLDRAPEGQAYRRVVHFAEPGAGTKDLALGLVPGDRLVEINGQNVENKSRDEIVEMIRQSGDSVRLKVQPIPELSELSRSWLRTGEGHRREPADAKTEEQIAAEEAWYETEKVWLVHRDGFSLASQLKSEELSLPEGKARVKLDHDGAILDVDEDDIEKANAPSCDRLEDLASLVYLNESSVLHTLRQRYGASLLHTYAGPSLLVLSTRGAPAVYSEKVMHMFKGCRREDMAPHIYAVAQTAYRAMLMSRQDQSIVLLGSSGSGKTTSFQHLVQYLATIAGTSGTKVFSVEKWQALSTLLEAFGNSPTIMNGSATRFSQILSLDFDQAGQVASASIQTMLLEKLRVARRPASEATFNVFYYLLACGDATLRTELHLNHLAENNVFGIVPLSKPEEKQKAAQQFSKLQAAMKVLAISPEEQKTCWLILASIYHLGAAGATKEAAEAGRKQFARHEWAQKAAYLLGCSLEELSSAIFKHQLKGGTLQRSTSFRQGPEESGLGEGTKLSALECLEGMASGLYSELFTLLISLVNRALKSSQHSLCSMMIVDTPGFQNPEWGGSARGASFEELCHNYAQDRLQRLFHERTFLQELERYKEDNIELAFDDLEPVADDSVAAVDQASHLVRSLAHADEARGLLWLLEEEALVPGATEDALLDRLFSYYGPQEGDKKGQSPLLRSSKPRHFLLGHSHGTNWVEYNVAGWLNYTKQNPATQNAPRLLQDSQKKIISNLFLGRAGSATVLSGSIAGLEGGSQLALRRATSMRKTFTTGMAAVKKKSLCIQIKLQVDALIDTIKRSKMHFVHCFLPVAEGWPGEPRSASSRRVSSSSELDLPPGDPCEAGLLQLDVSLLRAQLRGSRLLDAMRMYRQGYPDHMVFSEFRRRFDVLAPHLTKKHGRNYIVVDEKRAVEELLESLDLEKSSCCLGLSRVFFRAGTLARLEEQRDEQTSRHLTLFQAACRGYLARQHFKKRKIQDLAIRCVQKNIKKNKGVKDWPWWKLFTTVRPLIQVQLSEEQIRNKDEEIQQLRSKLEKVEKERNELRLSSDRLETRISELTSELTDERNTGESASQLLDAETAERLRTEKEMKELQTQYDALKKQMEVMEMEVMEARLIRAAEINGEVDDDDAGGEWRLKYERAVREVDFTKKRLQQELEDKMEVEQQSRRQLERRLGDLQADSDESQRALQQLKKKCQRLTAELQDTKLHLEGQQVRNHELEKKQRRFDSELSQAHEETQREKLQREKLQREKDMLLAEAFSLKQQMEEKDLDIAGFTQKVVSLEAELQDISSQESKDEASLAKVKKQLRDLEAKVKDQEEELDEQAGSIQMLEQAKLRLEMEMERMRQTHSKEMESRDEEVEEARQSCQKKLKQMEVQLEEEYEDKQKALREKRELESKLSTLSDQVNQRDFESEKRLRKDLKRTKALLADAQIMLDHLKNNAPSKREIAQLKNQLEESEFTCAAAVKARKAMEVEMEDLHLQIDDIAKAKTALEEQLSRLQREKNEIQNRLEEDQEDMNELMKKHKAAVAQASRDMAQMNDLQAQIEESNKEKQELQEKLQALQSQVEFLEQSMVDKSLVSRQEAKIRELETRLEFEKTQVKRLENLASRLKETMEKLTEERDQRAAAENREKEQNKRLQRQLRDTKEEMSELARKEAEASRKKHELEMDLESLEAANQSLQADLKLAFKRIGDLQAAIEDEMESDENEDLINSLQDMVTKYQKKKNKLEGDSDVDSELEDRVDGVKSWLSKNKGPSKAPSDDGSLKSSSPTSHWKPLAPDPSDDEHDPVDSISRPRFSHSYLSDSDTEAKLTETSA
UniProt Q9JLV2: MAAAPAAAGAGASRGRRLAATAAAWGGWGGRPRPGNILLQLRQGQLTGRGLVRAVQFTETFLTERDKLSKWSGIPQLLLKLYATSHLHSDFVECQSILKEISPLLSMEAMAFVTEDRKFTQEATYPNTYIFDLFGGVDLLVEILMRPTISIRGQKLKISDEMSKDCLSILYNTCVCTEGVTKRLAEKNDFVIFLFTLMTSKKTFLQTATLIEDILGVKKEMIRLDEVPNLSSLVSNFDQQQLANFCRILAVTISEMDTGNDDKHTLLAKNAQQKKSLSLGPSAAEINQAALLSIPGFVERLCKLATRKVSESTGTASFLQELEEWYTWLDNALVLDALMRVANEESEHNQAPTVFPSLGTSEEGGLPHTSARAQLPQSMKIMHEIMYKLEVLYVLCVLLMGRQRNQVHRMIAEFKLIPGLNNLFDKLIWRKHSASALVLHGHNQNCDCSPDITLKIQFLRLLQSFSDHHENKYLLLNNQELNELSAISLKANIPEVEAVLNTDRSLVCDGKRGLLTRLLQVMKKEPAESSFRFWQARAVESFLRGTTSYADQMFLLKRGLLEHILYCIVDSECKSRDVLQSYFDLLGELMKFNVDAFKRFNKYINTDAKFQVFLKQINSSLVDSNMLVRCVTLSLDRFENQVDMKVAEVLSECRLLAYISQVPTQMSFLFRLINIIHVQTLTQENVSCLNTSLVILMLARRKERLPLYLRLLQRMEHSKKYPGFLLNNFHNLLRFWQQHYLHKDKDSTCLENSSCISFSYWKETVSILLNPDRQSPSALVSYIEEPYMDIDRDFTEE
UniProt Q9JIY5: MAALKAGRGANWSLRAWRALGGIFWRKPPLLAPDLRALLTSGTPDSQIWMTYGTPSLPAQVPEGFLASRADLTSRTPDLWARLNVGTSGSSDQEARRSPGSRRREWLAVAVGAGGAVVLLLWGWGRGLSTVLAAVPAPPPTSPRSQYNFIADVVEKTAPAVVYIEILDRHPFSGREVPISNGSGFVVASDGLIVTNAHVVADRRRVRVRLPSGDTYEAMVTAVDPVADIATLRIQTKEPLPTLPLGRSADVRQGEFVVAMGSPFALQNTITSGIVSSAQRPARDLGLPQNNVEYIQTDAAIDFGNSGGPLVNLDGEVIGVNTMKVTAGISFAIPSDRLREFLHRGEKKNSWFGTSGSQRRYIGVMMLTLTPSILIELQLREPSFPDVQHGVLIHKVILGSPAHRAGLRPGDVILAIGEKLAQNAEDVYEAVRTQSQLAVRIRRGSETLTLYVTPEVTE
UniProt Q9JKV2: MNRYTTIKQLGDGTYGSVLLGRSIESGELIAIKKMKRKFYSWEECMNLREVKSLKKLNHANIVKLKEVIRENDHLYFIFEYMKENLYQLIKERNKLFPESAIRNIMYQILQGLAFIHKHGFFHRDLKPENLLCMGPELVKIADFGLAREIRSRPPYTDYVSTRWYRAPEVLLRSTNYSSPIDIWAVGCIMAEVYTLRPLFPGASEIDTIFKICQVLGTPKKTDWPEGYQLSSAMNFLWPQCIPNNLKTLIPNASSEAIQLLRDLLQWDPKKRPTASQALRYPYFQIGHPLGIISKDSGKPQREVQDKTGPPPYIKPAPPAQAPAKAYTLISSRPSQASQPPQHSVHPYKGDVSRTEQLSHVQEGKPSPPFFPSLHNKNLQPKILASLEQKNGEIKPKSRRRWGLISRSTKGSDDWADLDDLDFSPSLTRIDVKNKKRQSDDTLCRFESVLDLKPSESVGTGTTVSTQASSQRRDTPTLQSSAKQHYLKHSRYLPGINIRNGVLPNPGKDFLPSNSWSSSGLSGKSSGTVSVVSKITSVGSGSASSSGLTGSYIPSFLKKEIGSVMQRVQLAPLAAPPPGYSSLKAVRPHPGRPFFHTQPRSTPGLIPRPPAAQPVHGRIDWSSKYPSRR
UniProt Q9JI60: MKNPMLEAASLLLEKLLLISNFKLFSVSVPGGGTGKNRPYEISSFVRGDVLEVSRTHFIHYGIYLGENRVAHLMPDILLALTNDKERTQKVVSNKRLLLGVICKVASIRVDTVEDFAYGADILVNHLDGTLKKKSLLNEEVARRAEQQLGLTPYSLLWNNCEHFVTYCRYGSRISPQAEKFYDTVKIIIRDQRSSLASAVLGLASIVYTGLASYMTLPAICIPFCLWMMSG
UniProt Q9JHQ5: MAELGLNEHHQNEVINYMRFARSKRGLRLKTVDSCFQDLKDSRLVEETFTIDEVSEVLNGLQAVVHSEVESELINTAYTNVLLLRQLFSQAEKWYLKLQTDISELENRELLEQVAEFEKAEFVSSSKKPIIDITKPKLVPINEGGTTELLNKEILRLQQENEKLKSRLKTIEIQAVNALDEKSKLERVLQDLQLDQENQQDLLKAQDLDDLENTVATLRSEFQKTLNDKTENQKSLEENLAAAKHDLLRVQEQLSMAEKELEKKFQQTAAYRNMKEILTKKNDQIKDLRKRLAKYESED
UniProt Q9JLJ4: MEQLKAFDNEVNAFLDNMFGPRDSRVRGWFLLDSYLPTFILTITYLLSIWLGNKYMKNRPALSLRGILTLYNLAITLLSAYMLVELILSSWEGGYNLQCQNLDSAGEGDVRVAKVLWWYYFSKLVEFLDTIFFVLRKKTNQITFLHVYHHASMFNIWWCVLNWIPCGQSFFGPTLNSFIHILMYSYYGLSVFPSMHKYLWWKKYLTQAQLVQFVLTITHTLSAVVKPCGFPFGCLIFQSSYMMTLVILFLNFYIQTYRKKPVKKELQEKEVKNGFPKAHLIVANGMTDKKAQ
UniProt Q9JIW5: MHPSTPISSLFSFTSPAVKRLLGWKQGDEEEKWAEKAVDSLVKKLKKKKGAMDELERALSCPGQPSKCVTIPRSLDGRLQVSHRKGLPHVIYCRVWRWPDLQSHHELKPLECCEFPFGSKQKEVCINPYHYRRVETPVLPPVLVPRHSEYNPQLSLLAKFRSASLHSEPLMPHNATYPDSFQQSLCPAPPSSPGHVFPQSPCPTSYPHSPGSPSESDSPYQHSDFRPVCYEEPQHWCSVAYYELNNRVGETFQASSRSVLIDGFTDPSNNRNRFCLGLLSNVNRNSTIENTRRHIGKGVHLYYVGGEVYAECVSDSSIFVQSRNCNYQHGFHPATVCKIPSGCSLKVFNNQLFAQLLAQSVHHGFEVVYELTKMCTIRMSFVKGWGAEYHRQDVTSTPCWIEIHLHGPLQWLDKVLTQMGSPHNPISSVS
UniProt Q9JM14: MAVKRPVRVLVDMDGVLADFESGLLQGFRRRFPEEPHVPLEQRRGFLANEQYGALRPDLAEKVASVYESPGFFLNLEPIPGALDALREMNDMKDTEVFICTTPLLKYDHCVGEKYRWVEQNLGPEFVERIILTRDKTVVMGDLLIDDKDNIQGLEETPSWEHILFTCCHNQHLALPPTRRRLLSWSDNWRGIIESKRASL
UniProt Q9QUI6: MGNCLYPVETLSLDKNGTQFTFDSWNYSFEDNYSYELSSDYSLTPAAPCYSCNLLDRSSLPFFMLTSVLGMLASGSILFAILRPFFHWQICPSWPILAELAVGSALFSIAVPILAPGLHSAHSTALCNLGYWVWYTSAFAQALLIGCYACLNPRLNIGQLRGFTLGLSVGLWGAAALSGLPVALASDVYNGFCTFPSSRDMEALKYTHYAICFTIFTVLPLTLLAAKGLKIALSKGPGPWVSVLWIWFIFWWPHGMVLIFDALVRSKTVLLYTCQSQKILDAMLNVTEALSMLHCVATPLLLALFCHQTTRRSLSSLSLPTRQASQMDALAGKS
UniProt Q9JKD3: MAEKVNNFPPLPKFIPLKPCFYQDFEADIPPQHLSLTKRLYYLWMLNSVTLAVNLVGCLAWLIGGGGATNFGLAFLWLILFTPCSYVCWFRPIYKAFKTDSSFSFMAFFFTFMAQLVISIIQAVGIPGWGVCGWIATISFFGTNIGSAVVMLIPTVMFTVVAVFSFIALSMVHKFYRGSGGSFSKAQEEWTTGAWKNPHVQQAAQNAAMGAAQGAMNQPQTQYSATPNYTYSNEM
UniProt Q9ES18: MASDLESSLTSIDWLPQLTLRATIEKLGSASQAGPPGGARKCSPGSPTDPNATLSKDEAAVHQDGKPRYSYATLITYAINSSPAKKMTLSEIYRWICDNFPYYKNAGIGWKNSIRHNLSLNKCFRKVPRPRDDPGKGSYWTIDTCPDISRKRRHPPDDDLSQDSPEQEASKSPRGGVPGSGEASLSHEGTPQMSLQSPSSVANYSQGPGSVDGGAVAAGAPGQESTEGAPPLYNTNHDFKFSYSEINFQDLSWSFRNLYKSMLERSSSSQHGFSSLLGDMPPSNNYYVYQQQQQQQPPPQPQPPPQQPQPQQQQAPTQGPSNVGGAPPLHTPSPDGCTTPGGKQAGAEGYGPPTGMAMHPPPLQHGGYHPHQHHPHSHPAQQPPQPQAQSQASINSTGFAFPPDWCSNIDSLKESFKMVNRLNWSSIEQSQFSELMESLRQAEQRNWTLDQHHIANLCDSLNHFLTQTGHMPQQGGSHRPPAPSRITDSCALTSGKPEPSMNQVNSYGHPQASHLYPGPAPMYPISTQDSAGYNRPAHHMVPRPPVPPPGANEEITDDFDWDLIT

Compound: CN[C@@H]1C[C@H]2O[C@@](C)([C@@H]1OC)n1c3ccccc3c3c4c(c5c6ccccc6n2c5c31)C(=O)NC4 [staurosporine]
Assay: log2 fold change of tryptic peptide abundance, ligand vs vehicle (limited proteolysis) (log2 ratio); higher = more trypsin-susceptible (destabilized)
Conditions: ligand concentration: 20 uM; sample: mouse liver crude lysate; replicate design: treated separately

| Target | log2 fold change |
| --- | --- |
| UniProt Q9JMH9 (peptide sequence: APEGQAYR, peptide start residue: 244) | -0.279 |
| UniProt Q9JKF1 (peptide sequence: DRLQYFR, peptide start residue: 827) | 0.699 |
| UniProt Q9JHU2 (peptide sequence: KALYAMEIK, peptide start residue: 170) | -0.396 |
| UniProt Q9JHW4 (peptide sequence: ETNIQLFVGLK, peptide start residue: 484) | 0.317 |
| UniProt Q9JHW2 (peptide sequence: AVDNQVYVATASPARDDK, peptide start residue: 196) | -0.295 |
| UniProt Q9JKC8 (peptide sequence: ITPQKLPSLK, peptide start residue: 346) | -0.387 |
| UniProt Q9JHD1 (peptide sequence: ETGWKPSGK, peptide start residue: 689) | -0.472 |
| UniProt Q9JLV2 (peptide sequence: KEPAESSFR, peptide start residue: 524) | 0.204 |
| UniProt Q9JJ48 (peptide sequence: MSQGFINQHTVER, peptide start residue: 193) | 0.21 |
| UniProt Q9JIY5 (peptide sequence: VILGSPAHR, peptide start residue: 396) | -0.529 |
| UniProt Q9JKV2 (peptide sequence: YLPGINIR, peptide start residue: 492) | -0.0221 |
| UniProt Q9JK91 (peptide sequence: ALKNPSEEYGK, peptide start residue: 165) | 0.404 |
| UniProt Q9NWG9 (peptide sequence: GYLIYKPVPR, peptide start residue: 143) | -0.321 |
| UniProt Q9JIW9 (peptide sequence: VKSEEDKIPLLVVGNK, peptide start residue: 114) | -0.0576 |
| UniProt Q9JKP7 (peptide sequence: EALPDGVNISK, peptide start residue: 21) | 0.0769 |
| UniProt Q9JIX8 (peptide sequence: APTFSASVR, peptide start residue: 697) | 0.235 |
| UniProt Q9JLN9 (peptide sequence: LFDAPEVPLPSRK, peptide start residue: 1121) | -0.421 |
| UniProt Q9JI60 (peptide sequence: LFSVSVPGGGTGK, peptide start residue: 24) | 0.172 |

Quoted at random: three entries already listed.

| Target | log2 fold change |
| --- | --- |
| UniProt Q9JMH9 (peptide sequence: APEGQAYR, peptide start residue: 244) | -0.279 |
| UniProt Q9JKV2 (peptide sequence: YLPGINIR, peptide start residue: 492) | -0.0221 |
| UniProt Q9JK91 (peptide sequence: ALKNPSEEYGK, peptide start residue: 165) | 0.404 |

Following part

| Target | log2 fold change |
| --- | --- |
| UniProt Q9JI13 (peptide sequence: YYKEMEDR, peptide start residue: 368) | 0.31 |
| UniProt Q9JHQ5 (peptide sequence: LKTIEIQAVNALDEK, peptide start residue: 168) | -0.184 |
| UniProt Q9JJG9 (peptide sequence: HAGHELLLVPMGGK, peptide start residue: 582) | 0.206 |
| UniProt Q9JK30 (peptide sequence: TDLYHLQK, peptide start residue: 531) | 0.0959 |
| UniProt Q9JI75 (peptide sequence: VLIVYAHQEPK, peptide start residue: 6) | -0.0758 |
| UniProt Q9JLJ4 (peptide sequence: NGFPKAHLIVANGMTDKK, peptide start residue: 273) | -0.0952 |
| UniProt Q9JIW5 (peptide sequence: GAMDELER, peptide start residue: 50) | -0.381 |
| UniProt Q9JM14 (peptide sequence: LLSWSDNWR, peptide start residue: 182) | -0.111 |
| UniProt Q9JLG8 (peptide sequence: TAGLVATEPAR, peptide start residue: 110) | -0.143 |
| UniProt Q9QUI6 (peptide sequence: QASQMDALAGKS, peptide start residue: 323) | -0.23 |
| UniProt Q9JKD3 (peptide sequence: AQEEWTTGAWK, peptide start residue: 186) | 0.423 |
| UniProt Q9ES18 (peptide sequence: LGSASQAGPPGGAR, peptide start residue: 27) | -0.0594 |
| UniProt Q9JIH2 (peptide sequence: GVGTLHLKPTATQK, peptide start residue: 375) | -0.338 |
| UniProt Q9ESX5 (peptide sequence: NFDKLNVR, peptide start residue: 58) | -0.405 |
| UniProt Q9JJV4 (peptide sequence: TKREFLK, peptide start residue: 217) | -0.131 |
| UniProt Q9ESU6 (peptide sequence: DVPDSQQHPGPEK, peptide start residue: 335) | 0.428 |
| UniProt Q9JLZ8 (peptide sequence: KVQYRPVEGDPQTR, peptide start residue: 309) | 0.279 |
| UniProt Q9JJ78 (peptide sequence: KLLHGDIK, peptide start residue: 161) | 0.0155 |
